Measured values from PubChem BioAssay AID488835 (Broad Institute, 2010).
Out of some 1,400 compounds screened, about 140 (10%) were called active.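 Rule for the calls: active = Half-maximal inhibitory dose from the fit at or below ten times the top valid tested dose; inconclusive = Invalid fit, or flat curve showing 30 to 70% inhibition; inactive = the rest.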 Only a part is listed here, and it is no random draw. Entries with a potency or affinity are not part of this list.

By UniProt entry, the sequences of proteins in these tests, tags left out. Residues count along the entry.
UniProt Q9H3R0, 1-420 limits assumed: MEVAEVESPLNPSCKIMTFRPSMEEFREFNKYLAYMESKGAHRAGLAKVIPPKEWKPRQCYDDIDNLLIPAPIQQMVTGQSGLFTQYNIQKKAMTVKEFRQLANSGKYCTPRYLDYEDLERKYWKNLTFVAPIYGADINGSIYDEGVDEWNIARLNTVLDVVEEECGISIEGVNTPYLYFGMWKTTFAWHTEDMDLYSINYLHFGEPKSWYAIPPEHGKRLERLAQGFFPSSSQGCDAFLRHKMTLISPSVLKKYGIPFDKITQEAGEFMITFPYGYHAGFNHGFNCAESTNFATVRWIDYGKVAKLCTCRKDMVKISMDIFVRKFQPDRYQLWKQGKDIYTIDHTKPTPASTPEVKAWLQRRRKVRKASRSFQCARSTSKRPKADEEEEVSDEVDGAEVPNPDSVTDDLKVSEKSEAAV

The compounds below were run against Lysine-specific demethylase 4C (Homo sapiens) (UniProt Q9H3R0) (assay: GASC-1 (JMJD2C) histone demethylase inhibitors, dose response, biochemical, DELFIA europium, cherry-picked samples (AID 488835;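 note: signal is the H3K9me2 demethylation product detected by a dimethyl-specific antibody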)). Details: GST-JMJD2C(1-420), H3K9me3 demethylation; at 6 µM (top of the series) unless noted.

Activity change, negative = inhibition, inactive:
COc1ccc(NC(=O)N(C)C[C@H]2Oc3c(NC(=O)C4CC4)cccc3C(=O)N([C@H](C)CO)C[C@@H]2C)cc1 4.36%
O=C1NCCC/C1=N/Nc1ccc(F)cc1 -3.19%
COc1ccc(CCNC(=O)CSCc2n[nH]c(=O)[nH]2)cc1OC 5.01%
O=C(CSc1nnc(CNC(=O)c2c(F)cccc2Cl)o1)Nc1ccc2c(c1)OCCO2 -1.08%
CCn1c(CNC(=O)Cc2ccc(OC)cc2)nnc1SCC(=O)NC1CCCCC1 0.869%
CCN(CC)C(=O)C1c2ccccc2Oc2ccccc21 -11.4%
CC1CCN(C(=S)NC(=O)c2cccc([N+](=O)[O-])c2)CC1 1.7% [at 1.6 µM]
N/C(=N\S(=O)(=O)c1cc(C(F)(F)F)cc(C(F)(F)F)c1)c1ccccc1 0.83%
Cc1ccc(C(c2sc3nc(C)nn3c2O)N2CCN(c3ccccc3F)CC2)cc1 (centres undefined) 4.26%
CC(C)(C)c1ccc(C(=O)OCc2c(-c3ccccc3)ncc3ccccc23)cc1 2.8%
O=c1ccc2cc3c([nH]c4ccc(Br)cc43)oc-2c1O -20%
CCOc1ccc(C(=S)NC2CCCCC2)cc1 -1.16%
Cc1ccc(Cl)cc1N1CCN(C(=O)c2ccc(NS(=O)(=O)c3c(C)noc3C)cc2)CC1 -1.76%
NC(=O)C1CCN(C(=O)CCSc2ccccc2)CC1 3.4%
COc1ccc(CCNC(=O)c2ccccc2Cl)cc1OC 3.52%
COc1ccc2cc3cc(C(=O)N4CCN(C5CCCCC5)CC4)oc3nc2c1 0.294%
CC(=O)C[C@@H](O)CC(=O)[C@H]1OC(=O)CCCCCc2ccccc21 15.1%
COc1ccc(NC(=S)NNC(=O)c2ccc(S(=O)(=O)N3CCOCC3)cc2)cc1 2.81%
Cc1cccc(NC(=S)N2CCN(Cc3ccc4c(c3)OCO4)CC2)c1C 1.67%
COc1ccc(/C(O)=C/Sc2nnc(Cc3ccccc3)o2)cc1 -5.28%
Cc1ccc(S(=O)(=O)NCCC(=O)N2CCN(c3cccc(Cl)c3)CC2)cc1C 2.45%
CN(C)c1ccc(NC(=S)c2ccccn2)cc1 -5.84%
CCNc1ccc(S(=O)(=O)N(C)C)cc1NCC(=O)Nc1c(F)cccc1F 1.7%
CCOC(=O)C(C)Oc1ccsc1C(=O)OC (centres undefined) 3.95%
CC(=O)c1cccc(NC(=S)NC(=O)CC(C)C)c1 1.71%
COc1ccc(C(=O)O/N=C(\C)c2cnccn2)cc1 -0.844%
Cc1ccc(S(=O)(=O)N2[C@@H](c3ccc(C#N)cc3)C(C(=O)O)=C[C@H]2C(C)(C)C)cc1 5.5%
CCc1ccc(C(=O)CSc2nc3ccccc3c(=O)[nH]2)cc1 8.14%
CCOC(=O)c1c(NC(=O)c2cc(-c3ccc(O)cc3)on2)sc(C(C)=O)c1C -8.22%
Oc1ccc(-c2nc3ncccn3c2Nc2ccc3c(c2)OCO3)cc1 2.35%
CN(C)c1ccc(N=Cc2nc(-c3ccccc3)oc2OC(=O)c2ccccc2)cc1 10.3%
COc1ccc(N/C=C2/CCCCC2=O)cc1 -1.16%
O=C(Cn1nc(-c2ccc(Cl)cc2)ccc1=O)NCC1COCCO1 (centres undefined) 10.9%
Cn1c(=O)c(-c2ccccc2)nn2c3ccccc3nc12 7.46%
CC(C)NC(=O)Nc1ccc2c(c1)C(=O)N([C@H](C)CO)C[C@@H](C)[C@@H](CN(C)C(=O)NC1CCCCC1)O2 1.53%
CCOC(=O)Nc1cc(C)c(Cl)cc1OC 3.42%
NC(=O)C1CCN(c2nc(-c3ccccc3Br)cs2)CC1 -3.63%
Cc1nn(-c2cccc(C(=O)O)c2)c(C)c1Oc1ccccc1O 4.86%
COC(=O)c1cccc(C#CC(NP(=O)(c2ccccc2)c2ccccc2)c2ccccc2)c1 (centres undefined) 7.2%
O=C(N/N=C/c1ccc(O)cc1)c1cncc(Br)c1 4.32%
Cc1nc2sc(C(c3cccc(F)c3)N3CCOCC3)c(O)n2n1 (centres undefined) 17.7%
O=C(NNC(=O)c1cccs1)c1ccc([N+](=O)[O-])cc1 -4.01%
O=C(c1cccs1)N1CCN(S(=O)(=O)c2ccc(F)cc2)CC1 10.2%
CCNC(=S)NNC(=O)c1csc2c1CCC(C)C2 (centres undefined) -2.11%
CCC(C(=O)NCCCc1ccccc1)c1ccccc1 (centres undefined) -4.57%
CC(=O)Oc1ccc(NC(=O)Cc2ccccc2)c(C(=O)O)c1 -0.875%
CCOC(=O)Cn1c(=O)cnc2ccccc21 5.57%
Cc1cccc(NC(=O)CCN2CCN(C/C=C/c3ccccc3)CC2)c1 -3.63%
CCc1nn2c(N3CCOCC3)cc(C)nc2c1-c1ccc(F)cc1 1.33%
O=C(Cn1cnc2ccccc2c1=O)NCc1cccs1 -6.18%
CC(C)(C)NC(=O)C1CCN(C(=O)c2ccc(Br)cc2)CC1 3.64%
CCC(CO)Oc1cc(NC(=O)c2cccc(OC)c2)c2ncn(C(C)C)c2c1 (centres undefined) -5.66%
CCN(CC)CCSc1nc2ccccc2c(=S)n1-c1ccccc1 -2.56%
C#CCOCCOCCOCCNc1nc(N2CCN(C(=O)C([C@@H](C)O)n3cc([C@@H](N)CCCCN)nn3)CC2)nc(N2CCN(C(=O)[C@H](CC(N)=O)n3cc([C@@H](N)C(C)C)nn3)CC2)n1 (some centres undefined) 2.9%
O=C(O)c1ccc2c(c1)C(=O)N(CCC1=CCCCC1)C2=O 8.21%
CN1CCN(c2nc3ccccn3c(=O)c2/C=C(\C#N)S(=O)(=O)c2ccc(Cl)cc2)CC1 5.1%
CC1CCN(S(=O)(=O)c2ccc3[nH]c(=O)[nH]c3c2)CC1 -1.92%
CC1=NN(C(N)=S)C(=O)C1N=Nc1c(C)cc(C)cc1C (centres undefined) 1.58%
C=CCNC(=S)Nc1ccc(N2CCOCC2)c(S(=O)(=O)Nc2ccccc2Cl)c1 3.98%
Cc1c(NC(=O)CCN2C(=O)c3ccccc3C2=O)c(=O)n(-c2ccccc2)n1C -4.88%
Cc1ccc2nc(-c3cccc(NS(C)(=O)=O)c3)cc(-c3ccccc3)c2c1 8.31%
Cc1nnc(-c2cccc(Br)c2)c2cn(-c3ccccc3Cl)nc12 -0.242%
O=c1c2cnn(-c3ccccc3)c2nc(-c2cccs2)n1-c1ccc(Cl)cc1 -0.616%
Cc1ccc(-c2noc(C3CCN(S(C)(=O)=O)CC3)n2)o1 -3.12%
CCC(=O)Nc1cc2c(cc1C(=O)CC)OCCO2 -4.12%
CCOc1ccc(CN(C)CC(=O)Nc2cc(C)c(C)cc2[N+](=O)[O-])cc1 -0.977%
COc1ccc(NC(=S)NCCCn2ccnc2)cc1 -4.85%
Cc1nc(C(C)NC(=O)CCc2nnc(CCCc3ccccc3)o2)c(C)s1 (centres undefined) 4.59%
CCOC(=O)c1sc(=S)n(-c2ccc(Cl)cc2)c1SC -5.62%
O=C(CSc1nnc(CNC(=O)c2ccco2)o1)NC1CCCC1 -0.42% [at 1.6 µM]
CCCC(=O)NC(c1cccs1)c1cc(Cl)c2cccnc2c1O (centres undefined) -4.81%
O=C1CCCC2=C1C(c1ccc(OS(=O)(=O)c3ccc(Cl)cc3)cc1)C1=C(CCCC1=O)O2 1.91%
Cc1ccc(NC(=O)/C=C/c2cccs2)c([N+](=O)[O-])c1 7.91%
C#CCOCCOCCOCCNc1nc(N2CCN(C(=O)[C@H](CCCN=C(N)N)n3cc(C(N)[C@H](C)CC)nn3)CC2)nc(N2CCN(C(=O)[C@H](CC(N)=O)n3cc(C(N)[C@@H](C)CC)nn3)CC2)n1 (some centres undefined) -2.68%
Cc1ccc(/C(N)=N/OC(=O)N2c3ccccc3Sc3ccccc32)cc1 -8.04%
CCOC(=O)C1CCN(C(=O)CN(c2ccc(OC)c(OC)c2)S(=O)(=O)c2ccccc2)CC1 0.373%
CSc1ccc(-c2nc(CSCC(=O)N3CCOCC3)c(C)o2)cc1 -2.12%
NS(=O)(=O)c1ccc(CCNC(=O)CSc2ccccc2)cc1 3.66%
COc1cc(/C=N/N2C(=O)C3C4c5ccccc5C(c5ccccc54)C3C2=O)ccc1O (centres undefined) -0.389%
CCCCCNc1nc(-c2ccccc2)nc(-n2ccnc2)n1 0.629%
Cc1ccc(S(=O)(=O)Nc2ccc3c(c2)CC(=O)N([C@H](C)CO)C[C@@H](C)[C@H](CN(C)S(=O)(=O)c2ccccc2)O3)cc1 4.66%
COc1ccc(-c2cc(C(F)(F)F)nc(SCCC(=O)NCc3ccco3)n2)cc1 4.42%
CCCN(CC(=O)Nc1ccccc1C)C(=O)CCl 1.8%
O=C(O)c1ccc2cc(-c3ccccc3)[nH]c2c1 4.85%
CC(=O)Nc1cc2c(cc1NC(=O)Cn1nc(-c3ccccc3)ccc1=O)OCCO2 -7.55%
COc1ccc(C(CNC(=O)c2oc3cc(Br)ccc3c2C)N2CCCCC2)cc1 (centres undefined) 1.37%
COc1ccc(Br)cc1CN(C)CC(=O)NCc1ccc(F)cc1 -5.46%
Cn1c(=O)[nH]c(=O)c2c1nc(NCCCO)n2Cc1ccc(F)cc1 3.15%
CCCCN(C)C(=O)CCC(=O)NNc1nc2ccccc2c2nc(C)nn12 -5.21%

Ordered by heavy-atom count (smallest number first): three of the compounds above
Activity change, negative = inhibition, inactive:
Cc1ccc(NC(=O)/C=C/c2cccs2)c([N+](=O)[O-])c1 7.91%
CC(=O)C[C@@H](O)CC(=O)[C@H]1OC(=O)CCCCCc2ccccc21 15.1%
Cc1cccc(NC(=S)N2CCN(Cc3ccc4c(c3)OCO4)CC2)c1C 1.67%
